# Test results published in publication PMC5996148.
# By UniProt entry, the sequences of proteins in these tests, tags left out. Where a name states a change or a piece, a line headed by the entry shows the natural chain unless it says otherwise.
# UniProt Q8IXJ9: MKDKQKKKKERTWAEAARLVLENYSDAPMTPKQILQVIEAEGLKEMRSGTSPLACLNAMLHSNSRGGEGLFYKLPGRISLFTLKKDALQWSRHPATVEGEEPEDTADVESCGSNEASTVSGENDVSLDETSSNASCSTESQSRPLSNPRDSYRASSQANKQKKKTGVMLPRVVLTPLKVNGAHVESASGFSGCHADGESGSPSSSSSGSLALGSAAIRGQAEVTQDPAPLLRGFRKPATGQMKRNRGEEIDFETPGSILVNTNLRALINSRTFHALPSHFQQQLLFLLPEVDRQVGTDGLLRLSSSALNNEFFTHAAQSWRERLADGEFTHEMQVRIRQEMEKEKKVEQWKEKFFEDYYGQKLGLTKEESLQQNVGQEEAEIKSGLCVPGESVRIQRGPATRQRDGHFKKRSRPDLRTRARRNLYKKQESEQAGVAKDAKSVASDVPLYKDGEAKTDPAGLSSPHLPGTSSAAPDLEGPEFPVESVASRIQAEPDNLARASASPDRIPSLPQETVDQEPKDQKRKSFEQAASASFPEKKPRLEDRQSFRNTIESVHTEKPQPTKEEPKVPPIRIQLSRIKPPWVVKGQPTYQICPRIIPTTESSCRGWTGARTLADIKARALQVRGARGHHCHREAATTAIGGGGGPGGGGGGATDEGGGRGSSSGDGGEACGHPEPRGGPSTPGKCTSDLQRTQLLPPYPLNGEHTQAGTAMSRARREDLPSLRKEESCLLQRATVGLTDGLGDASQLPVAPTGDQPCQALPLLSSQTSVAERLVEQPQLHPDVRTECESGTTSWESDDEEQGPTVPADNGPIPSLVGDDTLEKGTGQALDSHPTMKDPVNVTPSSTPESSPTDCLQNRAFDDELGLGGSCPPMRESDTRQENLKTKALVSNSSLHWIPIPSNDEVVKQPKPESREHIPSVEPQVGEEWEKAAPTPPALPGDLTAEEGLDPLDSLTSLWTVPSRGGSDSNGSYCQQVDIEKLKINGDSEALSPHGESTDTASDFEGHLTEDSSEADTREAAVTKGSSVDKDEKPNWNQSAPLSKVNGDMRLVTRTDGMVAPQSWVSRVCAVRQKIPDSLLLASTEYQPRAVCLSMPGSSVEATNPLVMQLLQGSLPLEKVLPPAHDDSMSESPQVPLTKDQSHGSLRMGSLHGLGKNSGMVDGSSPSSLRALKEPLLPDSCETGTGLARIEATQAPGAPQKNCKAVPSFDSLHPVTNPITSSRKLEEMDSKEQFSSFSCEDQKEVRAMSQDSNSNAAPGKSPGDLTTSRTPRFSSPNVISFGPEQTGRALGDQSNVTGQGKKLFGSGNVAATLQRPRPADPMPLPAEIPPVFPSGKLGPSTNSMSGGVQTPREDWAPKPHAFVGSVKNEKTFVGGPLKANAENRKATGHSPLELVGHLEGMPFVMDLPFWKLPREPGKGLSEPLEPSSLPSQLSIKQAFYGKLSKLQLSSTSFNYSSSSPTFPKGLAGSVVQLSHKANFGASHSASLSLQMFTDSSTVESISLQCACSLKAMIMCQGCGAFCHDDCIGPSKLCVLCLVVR
# The other results are listed elsewhere or left out. For some of these results: Construct or isoform of the protein are uncertain.
# What was measured:
# Assay in all cases: protein microarray (ProtoArray v5.0), streptavidin-Alexa Fluor 647
# Conditions in all cases: 3'-biotin; 20 mM Tris (pH 7.5), 5 mM MgCl2, 100 mM KCl, 0.1% Tween-20, A/T-rich and random oligonucleotide blockers; temperature not stated; high values mean tight binding
# ASB13 (human) = test system: ASB13 (human)
# ASB6 (human) = test system: ASB6 (human)
# ASMTL (human) = test system: ASMTL (human)
# ASNS = biological target: T1, ASNS (UniProt P08243)
# T1 sequence: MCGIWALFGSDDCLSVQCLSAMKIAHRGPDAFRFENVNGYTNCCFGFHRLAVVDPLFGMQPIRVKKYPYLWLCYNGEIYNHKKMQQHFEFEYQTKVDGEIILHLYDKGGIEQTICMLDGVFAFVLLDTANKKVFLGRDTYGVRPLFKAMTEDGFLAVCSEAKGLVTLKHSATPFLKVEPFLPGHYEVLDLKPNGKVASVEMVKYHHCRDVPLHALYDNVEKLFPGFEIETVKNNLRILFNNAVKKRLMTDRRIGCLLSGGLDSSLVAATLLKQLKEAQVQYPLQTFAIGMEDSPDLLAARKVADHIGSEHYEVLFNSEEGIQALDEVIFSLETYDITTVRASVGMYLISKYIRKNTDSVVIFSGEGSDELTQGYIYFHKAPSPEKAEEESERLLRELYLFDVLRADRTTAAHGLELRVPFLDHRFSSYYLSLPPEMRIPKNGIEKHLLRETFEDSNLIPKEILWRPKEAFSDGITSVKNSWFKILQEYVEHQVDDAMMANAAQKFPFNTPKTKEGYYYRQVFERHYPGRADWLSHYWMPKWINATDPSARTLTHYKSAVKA
# ASXL1 = ASXL1 (UniProt Q8IXJ9)
# ATF2 (human) = test system: ATF2 (human)
# ATF3 (human) = test system: ATF3 (human)
# ATG10 (human) = test system: ATG10 (human)
# ATG4A (human) = test system: ATG4A (human)
# ATG7 (human) = test system: ATG7 (human)
sequence,measurement,setting,value
GGGGACAGGGGTATGGGGAGGGG [G4-3 biotinylated (CtG)],binding signal,ASB13 (human),-0.309 z-score
same,binding signal,ASB6 (human),-0.329 z-score
same,binding signal,ASMTL (human),-0.332 z-score
same,binding signal,ASNS,-0.339 z-score
same,binding signal,ASXL1,9.22 z-score
same,binding signal,ATF2 (human),-0.32 z-score
same,binding signal,ATF3 (human),-0.317 z-score
same,binding signal,ATG10 (human),-0.32 z-score
same,binding signal,ATG4A (human),-0.343 z-score
same,binding signal,ATG7 (human),-0.289 z-score
